Values from PubChem BioAssay AID1259254 (NCATS, 2017).
This is an unselected part of about 59,000 reagents. In the full data, about 1,550 (2.6%) were called active. 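G2 share is only a proxy for re-replication; each gene was hit by three separate siRNAs, and active genes were retested.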 Reagents against one gene are numbered here. Not all columns of the deposit are shown. Not given: the amount of reagent.

Purpose: 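Genome-wide screen for genes that prevent DNA re-replication in cancer cells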 (primary screen)
Cells: human HCT116 colorectal cancer cells
Reagents: single siRNA against human genes
Time to read-out: 3 days
Detection: 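Imaged Hoechst DNA stain sorts each cell into a cycle phase by DNA amount; per plate, G2 fraction set to 0% for non-targeting and 100% for GMNN siRNA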
Reading the numbers: G2 robust z-score: higher = more G2 cells, more excess DNA replication
Rule for the call: 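Active siRNAs have a G2 robust z of 5 or more median absolute deviations over the median, which in these data means about 38% or higher of GMNN control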

| Gene | siRNA no. | G2 robust z-score | Outcome |
| --- | --- | --- | --- |
| RHCE | 1 | -0.304 | inactive |
| RHCE | 2 | 0.626 | inactive |
| RHCE | 3 | -0.163 | inactive |
| DLX6-AS1 | 1 | -0.344 | inactive |
| DLX6-AS1 | 2 | 0.605 | inactive |
| DLX6-AS1 | 3 | 0.0324 | inactive |
| LOC645485 | 1 | -0.715 | inactive |
| LOC645485 | 2 | -0.532 | inactive |
| LOC645485 | 3 | -0.728 | inactive |
| SPAG4 | 1 | 0.905 | inactive |
| SPAG4 | 2 | 0.838 | inactive |
| SPAG4 | 3 | -1.29 | inactive |
| BTF3L4 | 1 | -0.941 | inactive |
| BTF3L4 | 2 | 0.637 | inactive |
| BTF3L4 | 3 | -1.09 | inactive |
| CUL4A | 1 | 0.175 | inactive |
| CUL4A | 2 | -0.295 | inactive |
| CUL4A | 3 | -0.182 | inactive |
| PRELID3A | 1 | 0.985 | inactive |
| PRELID3A | 2 | 2.65 | inactive |
| PRELID3A | 3 | -0.0415 | inactive |
| KLF2 | 1 | 1.13 | inactive |
| KLF2 | 2 | -1.2 | inactive |
| KLF2 | 3 | 0.329 | inactive |
| TMEM9 | 1 | -1.29 | inactive |
| TMEM9 | 2 | -0.484 | inactive |
| TMEM9 | 3 | 1.2 | inactive |
| NFE2L2 | 1 | -0.621 | inactive |
| NFE2L2 | 2 | 1.56 | inactive |
| NFE2L2 | 3 | 4.93 | inactive |
| GSTO2 | 1 | 0.266 | inactive |
| GSTO2 | 2 | -0.238 | inactive |
| GSTO2 | 3 | 11 | active |
| C2orf66 | 1 | -1.03 | inactive |
| C2orf66 | 2 | 4.28 | inactive |
| C2orf66 | 3 | -1.31 | inactive |
| RPL26 | 1 | 5.55 | active |
| RPL26 | 2 | 1.16 | inactive |
| RPL26 | 3 | 8.68 | active |
| SEC23A | 1 | 0.181 | inactive |
| SEC23A | 2 | 1.01 | inactive |
| SEC23A | 3 | -0.691 | inactive |
| SLC25A51 | 1 | -0.486 | inactive |
| SLC25A51 | 2 | -0.778 | inactive |
| SLC25A51 | 3 | 0.0652 | inactive |
| DTNA | 1 | -0.945 | inactive |
| DTNA | 2 | 0.543 | inactive |
| DTNA | 3 | 0.0813 | inactive |
